{
  "sequences": {"note": "Amino acid sequences for entries named in this document (tags omitted). Residues count along the entry.", "UniProt Q13261, 31-205 limits assumed": "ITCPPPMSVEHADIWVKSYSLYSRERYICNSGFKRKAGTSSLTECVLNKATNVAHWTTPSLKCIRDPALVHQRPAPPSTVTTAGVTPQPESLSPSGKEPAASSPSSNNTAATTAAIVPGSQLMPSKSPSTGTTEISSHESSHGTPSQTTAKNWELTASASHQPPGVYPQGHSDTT"},
  "source": "patent US12297246B2",
  "about": "“Interleukin-15 activity antagonist peptide” (CENTRO DE INGENIERÍA GENÉTICA Y BIOTECNOLOGÍA, priority 2017, dated 2025)",
  "key": {"[1]": {"system": "synovial cells from RA patient", "experiment": "IL-6 secretion induced by soluble IL-15Rα in synovial cells from RA patient (ex vivo)", "type": "cell-based, human", "conditions": "IL-15Rα 100 ng/mL, peptide 100 μg/mL, 48 h, patient P1; FIG. 3D"}, "[2]": {"system": "synovial cells from RA patients", "experiment": "TNF-α secretion in synovial cells from RA patients (ex vivo)", "type": "cell-based, human", "conditions": "culture supernatant of synovial cells from three RA patients (P1-P3); FIGS. 3A-3C"}, "CTLL-2 cells": {"system": "CTLL-2 cells", "experiment": "IL-15-induced CTLL-2 cell proliferation assay", "type": "cell-based", "conditions": "ratio of activity in CTLL-2 assay", "description": "The proliferation of the CTLL-2 cell line is dependent on IL-15. Molecular entities that bind to IL-15 or its receptor subunit inhibit the proliferation of this cell line. To evaluate the antagonist capacity of peptides designed and obtained in the present invention, was followed the procedure described by Santos et al in 2012. Peptide 1 was included in all assays.\nThe realization of this colorimetric assay allowed calculating the IC50 value of each peptide, for a fixed IL-15 concentration of 300 μg/mL."}, "IL-15/IL-15Rα complex": {"biological_target": "T1, IL-15/IL-15Rα complex (Homo sapiens, UniProt Q13261)", "T1 construct": "all evaluated peptides recognized IL-15Rα immobilized on the ELISA plate", "conditions": "reported by Santos et al in 2012; cited from earlier work"}},
  "note": "Part of at least one peptide drawing is inferred or uncertain, most often the ends. Some compounds share one wording; it may come from a single statement. Where a SMILES comes first, the peptide text is derived from it. Bridges are numbered along the chain shown (N, C = ends). Roman numbers before positions name the chains, in order. Where no end group is shown, it is not given here. [ ]: non-standard residue; d: D form.",
  "data": [
    {"compound": "CSCC[C@H](NC(=O)[C@@H](C)NC(=O)[C@@H](NC(=O)[C@@H](NC(=O)[C@@H](N)CCCCN)C(C)C)[C@@H](C)O)C(=O)N[C@@H](CCCCN)C(=O)N[C@@H](CS)C(=O)N[C@@H](Cc1ccccc1)C(=O)N[C@@H](CC(C)C)C(=O)N[C@@H](CC(C)C)C(N)=O", "note": "[Peptide 5] (H-KVT[dA]MKCFLL-NH2)", "values": [
      {"measurement": "inhibition of IL-6 secretion compared with Peptide 1", "setting": "[1]", "value": "more active than the original antagonist (Peptide 1)"},
      {"measurement": "inhibition of TNF-α secretion compared with Peptide 1", "setting": "[2]", "value": "more active than the original antagonist (Peptide 1)"}
    ]},
    {"compound": "CSCC[C@H](NC(=O)[C@@H](C)NC(=O)[C@@H](NC(=O)[C@@H](NC(=O)[C@@H](N)CCCCN)C(C)C)[C@@H](C)O)C(=O)N[C@@H](CCCCN)C(=O)N[C@@H](CSSC[C@H](NC(=O)[C@H](CCCCN)NC(=O)[C@H](CCSC)NC(=O)[C@@H](C)NC(=O)[C@@H](NC(=O)[C@@H](NC(=O)[C@@H](N)CCCCN)C(C)C)[C@@H](C)O)C(=O)N[C@@H](Cc1ccccc1)C(=O)N[C@@H](CC(C)C)C(=O)N[C@@H](CC(C)C)C(N)=O)C(=O)N[C@@H](Cc1ccccc1)C(=O)N[C@@H](CC(C)C)C(=O)N[C@@H](CC(C)C)C(N)=O", "note": "[Peptide 12] (I: H-KVT[dA]MKCFLL-NH2 / II: H-KVT[dA]MKCFLL-NH2; disulfide I:7-II:7)", "values": [
      {"measurement": "inhibition of IL-6 secretion compared with Peptide 1", "setting": "[1]", "value": "more active than the original antagonist (Peptide 1)"},
      {"measurement": "inhibition of TNF-α secretion compared with Peptide 1", "setting": "[2]", "value": "more active than the original antagonist (Peptide 1)"},
      {"measurement": "times more active than the original peptide (Peptide 1)", "setting": "CTLL-2 cells", "value": 16}
    ]},
    {"compound": "CSCC[C@H](NC(=O)[C@@H](C)NC(=O)[C@@H](NC(=O)[C@@H](NC(=O)[C@H](N)CCCCN)C(C)C)[C@@H](C)O)C(=O)N[C@@H](CCCCN)C(=O)N[C@@H](CS)C(=O)N[C@@H](Cc1ccccc1)C(=O)N[C@@H](CC(C)C)C(=O)N[C@@H](CC(C)C)C(N)=O", "note": "[Peptide 13] (H-[dK]VT[dA]MKCFLL-NH2)", "values": [
      {"measurement": "inhibition of IL-6 secretion compared with Peptide 1", "setting": "[1]", "value": "more active than the original antagonist (Peptide 1)"},
      {"measurement": "inhibition of TNF-α secretion compared with Peptide 1", "setting": "[2]", "value": "more active than the original antagonist (Peptide 1)"}
    ]},
    {"compound": "CSCC[C@H](NC(=O)[C@@H](C)NC(=O)[C@@H](NC(=O)[C@@H](NC(=O)[C@H](N)CCCCN)C(C)C)[C@@H](C)O)C(=O)N[C@@H](CCCCN)C(=O)N[C@@H](CSSC[C@H](NC(=O)[C@H](CCCCN)NC(=O)[C@H](CCSC)NC(=O)[C@@H](C)NC(=O)[C@@H](NC(=O)[C@@H](NC(=O)[C@H](N)CCCCN)C(C)C)[C@@H](C)O)C(=O)N[C@@H](Cc1ccccc1)C(=O)N[C@@H](CC(C)C)C(=O)N[C@@H](CC(C)C)C(N)=O)C(=O)N[C@@H](Cc1ccccc1)C(=O)N[C@@H](CC(C)C)C(=O)N[C@@H](CC(C)C)C(N)=O", "note": "[Peptide 14] (I: H-[dK]VT[dA]MKCFLL-NH2 / II: H-[dK]VT[dA]MKCFLL-NH2; disulfide I:7-II:7)", "values": [
      {"measurement": "inhibition of IL-6 secretion compared with Peptide 1", "setting": "[1]", "value": "more active than the original antagonist (Peptide 1)"},
      {"measurement": "inhibition of TNF-α secretion compared with Peptide 1", "setting": "[2]", "value": "more active than the original antagonist (Peptide 1)"}
    ]},
    {"compound": "KVTAMKCFLL-NH2 [Peptide 1, reference compound]", "values": [
      {"measurement": "% inhibition of IL-15/IL-15Rα complex formation", "setting": "IL-15/IL-15Rα complex", "value": 70, "unit": "%"}
    ]}
  ]
}
